The experiment addresses bACE2-Rm (bat ACE2 from Rhinolophus macrotis) expressed in insect cells, residues 19 to 615 (Rhinolophus macrotis) (UniProt E2DHI3). Description: SPR; both purified. For orientation: SPR reads the build-up and loss of mass on a sensor chip optically.

No constants are given. Whether binding was seen depends on the method and setting.

The results in this text go back to paper PMC7817217.

As to “SARS-CoV spike receptor binding domain (SARS-RBD) (from UniProt P59594 306-527) (domain or fragment)”, the binding entry is recorded as “no binding (tested: 31.25 nM to 1 μM)”.
